The text below walks through data of PubChem BioAssay AID256 (DTP/NCI, 2004).

The list shows only some results of the screen, not a fair sample: it gathers some chemical classes. Other doses and runs of a compound may be missing. T/C gives the treated animals as a percentage of the vehicle group. Some entries give survivors of the animals treated and no T/C: the source holds a T/C of zero for them, seemingly a mark for toxic or unscored doses. Some doses without a T/C left all or most animals alive at the check, yet need not have been tolerated: the source hardly ever lists a survival T/C far under the control, and the zero likely stands for such cases as well. Counts of survivors are from the toxicity check (mostly the fifth day) where no day follows; animals may have died later. Schedule codes are those of the source, read here as Q, the interval in days (D) or hours (H), X, the number of doses. For survival time, the PubChem record calls one and a half times the control and up active, and a quarter to a half above the control has no call in these data; cut-offs in other NCI protocols can differ. Signs of the kind (2×) count equal records among those shown. Some entries hold several experiments; their values stand side by side, smallest first. Some T/C values are marked as having no survivor count here; that says nothing about deaths at the dose. Some T/C values are followed by the survivors on the day toxicity was checked, most often the fifth; without a count or a note in brackets, all were alive then.

The subject of the experiment is CD2F1 mice, L1210 leukemia ip, survival T/C. The experiment can be described thus: NCI In Vivo Anticancer Drug Screen. Data for tumor model L1210 Leukemia (intraperitoneal) in CD2F1 (CDF1) mice. As to conditions: T/C endpoint: mean survival time, higher T/C = longer survival. Put shortly:
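Mice carrying a transplanted tumor received test compound or vehicle alone. The value is the measurement in the treated group divided by that in the vehicle-treated control group.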

Where [1] appears, read: dose: 31.25 mg/kg/injection, schedule: Q01DX001 (ip), vehicle: DMSO.
Where [2] appears, read: dose: 62.5 mg/kg/injection, schedule: Q01DX001 (ip), vehicle: DMSO.
The mark [3] stands for this setting: dose: 125.0 mg/kg/injection, schedule: Q01DX001 (ip), vehicle: DMSO.
Where [4] appears, read: dose: 250.0 mg/kg/injection, schedule: Q01DX001 (ip), vehicle: DMSO.
[5] abbreviates: dose: 500.0 mg/kg/injection, schedule: Q01DX001 (ip), vehicle: DMSO.
Setting [6] is: dose: 50.0 mg/kg/injection, schedule: Q01DX009 (ip), vehicle: Klucel (hydroxypropylcellulose) (HPC).
[7] abbreviates: dose: 100.0 mg/kg/injection, schedule: Q01DX009 (ip), vehicle: Klucel (hydroxypropylcellulose) (HPC).
[8] abbreviates: dose: 25.0 mg/kg/injection, schedule: Q01DX009 (ip), vehicle: Klucel (hydroxypropylcellulose) (HPC).

`C#CCCOP(N)(=O)N(CCCl)CCCl` (configuration not stated): the T/C reads like this: (dose: 15.63 mg/kg/injection, schedule: Q01DX001 (ip), vehicle: DMSO) 98 % of control; under setting [1], 104 % of control; under setting [2], 98 % of control; under setting [3], 97 % of control; under setting [4], 92 % of control; under setting [5], 105 % of control [5 of 6 alive]. Moreover, where the note is “dose: 1000.0 mg/kg/injection, schedule: Q01DX001 (ip), vehicle: DMSO”, the survivor count is 0 of 6.

As for `CC(C)=C(OP(C)(I)(N(C)C)N(C)C)C(C)(C)C(=O)N(C)C`, the T/C is 103 % of control [survivor count not shown] (dose: 75.0 mg/kg/injection, schedule: Q01DX001 (ip), vehicle: saline) and 97 % of control [survivor count not shown] (dose: 150.0 mg/kg/injection, schedule: Q01DX001 (ip), vehicle: saline).

Take `O=C(CF)Nc1ccc(N(CCCl)CCCl)cc1`: the T/C is 117 and 119 % of control (dose: 10.0 mg/kg/injection, schedule: Q04DX003 (ip), vehicle: Klucel (hydroxypropylcellulose) (HPC)); 127 and 143 % of control (dose: 20.0 mg/kg/injection, schedule: Q04DX003 (ip), vehicle: Klucel (hydroxypropylcellulose) (HPC)); 139 [5 of 6 alive] and 140 % of control [5 of 6 alive] (dose: 40.0 mg/kg/injection, schedule: Q04DX003 (ip), vehicle: Klucel (hydroxypropylcellulose) (HPC)). The survivor count was 0 of 6 (dose: 100.0 mg/kg/injection, schedule: Q04DX003 (ip), vehicle: Klucel (hydroxypropylcellulose) (HPC)); 0 of 6 (dose: 200.0 mg/kg/injection, schedule: Q04DX003 (ip), vehicle: Klucel (hydroxypropylcellulose) (HPC)); 0 of 6 (dose: 400.0 mg/kg/injection, schedule: Q04DX003 (ip), vehicle: Klucel (hydroxypropylcellulose) (HPC)).

For `O=[N+]([O-])c1ccc(SSc2ccc([N+](=O)[O-])cc2[N+](=O)[O-])c([N+](=O)[O-])c1`, the T/C was 94 % of control (dose: 100.0 mg/kg/injection, schedule: Q01DX009 (ip), vehicle: saline with Tween-80); 93 % of control (dose: 200.0 mg/kg/injection, schedule: Q01DX009 (ip), vehicle: saline with Tween-80); 93 % of control (dose: 400.0 mg/kg/injection, schedule: Q01DX009 (ip), vehicle: saline with Tween-80).

With `NC1CCCCC1.O=P(O)(N(CCCl)CCCl)N1CC1`, the T/C runs as follows: (dose: 25.0 mg/kg/injection, schedule: Q01DX001 (ip), vehicle: DMSO, evaluated on day 45) 101 % of control; (dose: 25.0 mg/kg/injection, schedule: Q01DX001 (ip), vehicle: DMSO, evaluated on day 60) 116 % of control; (dose: 25.0 mg/kg/injection, schedule: Q01DX001 (ip), vehicle: other) 113 % of control; (dose: 25.0 mg/kg/injection, schedule: Q01DX001 (ip), vehicle: water) 126 % of control; under setting [1], 146 % of control; (dose: 50.0 mg/kg/injection, schedule: Q01DX001 (ip), vehicle: DMSO, evaluated on day 45) 158 % of control. Also, the T/C runs as follows: (dose: 50.0 mg/kg/injection, schedule: Q01DX001 (ip), vehicle: DMSO, evaluated on day 60) 116 % of control; (dose: 50.0 mg/kg/injection, schedule: Q01DX001 (ip), vehicle: other) 129 % of control; (dose: 50.0 mg/kg/injection, schedule: Q01DX001 (ip), vehicle: water) 151 % of control; under setting [2], 173 % of control; (dose: 100.0 mg/kg/injection, schedule: Q01DX001 (ip), vehicle: DMSO, evaluated on day 45) 121 % of control; (dose: 100.0 mg/kg/injection, schedule: Q01DX001 (ip), vehicle: DMSO, evaluated on day 60) 140 % of control. For the same compound, the T/C is, setting by setting: (dose: 100.0 mg/kg/injection, schedule: Q01DX001 (ip), vehicle: other) 148 % of control; (dose: 100.0 mg/kg/injection, schedule: Q01DX001 (ip), vehicle: water) 177 % of control; (dose: 125.0 mg/kg/injection, schedule: Q01DX001 (ip), vehicle: DMSO, evaluated on day 30) 144 % of control [5 of 6 alive]; (dose: 125.0 mg/kg/injection, schedule: Q01DX001 (ip), vehicle: DMSO, evaluated on day 60) 135 % of control; (dose: 200.0 mg/kg/injection, schedule: Q01DX001 (ip), vehicle: DMSO, evaluated on day 45) 147 % of control; (dose: 200.0 mg/kg/injection, schedule: Q01DX001 (ip), vehicle: DMSO, evaluated on day 60) 379 % of control. The T/C (dose: 200.0 mg/kg/injection, schedule: Q01DX001 (ip), vehicle: other) was 175 % of control [5 of 6 alive]; the T/C under setting [4] is 142 % of control; the T/C (dose: 266.0 mg/kg/injection, schedule: Q01DX001 (ip), vehicle: DMSO) was 101 % of control; the T/C (dose: 400.0 mg/kg/injection, schedule: Q01DX001 (ip), vehicle: DMSO, evaluated on day 25) is 106 % of control; the T/C (dose: 400.0 mg/kg/injection, schedule: Q01DX001 (ip), vehicle: DMSO, evaluated on day 45) was 210 % of control; the T/C (dose: 400.0 mg/kg/injection, schedule: Q01DX001 (ip), vehicle: DMSO, evaluated on day 60) is 490 % of control. The T/C reads like this: (dose: 400.0 mg/kg/injection, schedule: Q01DX001 (ip), vehicle: other) 302 % of control; under setting [5], 456 % of control; (dose: 600.0 mg/kg/injection, schedule: Q01DX001 (ip), vehicle: DMSO) 103 % of control. Also, the survivor count reads like this: (dose: 200.0 mg/kg/injection, schedule: Q01DX001 (ip), vehicle: water) 2 of 6; under setting [4], 2 of 6; (dose: 400.0 mg/kg/injection, schedule: Q01DX001 (ip), vehicle: water) 0 of 6; under setting [5], 0 of 6; (dose: 900.0 mg/kg/injection, schedule: Q01DX001 (ip), vehicle: DMSO) 1 of 6.

Take `NCCOC(=O)N(CCCl)CCCl`: the T/C under setting [6] is 102 % of control; the T/C under setting [7] is 97 % of control; the T/C (dose: 200.0 mg/kg/injection, schedule: Q01DX009 (ip), vehicle: Klucel (hydroxypropylcellulose) (HPC)) is 100 % of control.

With `ICCN(CCI)c1cccc2ccccc12`, the T/C was 117 % of control (2×) (dose: 3.12 mg/kg/injection, schedule: Q01DX009 (ip), vehicle: Klucel (hydroxypropylcellulose) (HPC)); 100 and 120 % of control (dose: 6.25 mg/kg/injection, schedule: Q01DX009 (ip), vehicle: Klucel (hydroxypropylcellulose) (HPC)); 98 and 114 % of control (dose: 12.5 mg/kg/injection, schedule: Q01DX009 (ip), vehicle: Klucel (hydroxypropylcellulose) (HPC)); 114 % of control under setting [8]; 108 % of control under setting [6]; 96 % of control under setting [7]. In addition, the survivor count by setting is: under setting [8], 5 of 6; under setting [6], 2 of 6; under setting [7], 1 of 6.

In the case of `O=P1(N(CCCl)CCCl)OCC(CCl)O1` (configuration not stated), the T/C is 101 % of control (dose: 62.5 mg/kg/injection, schedule: Q01DX001 (ip), vehicle: other); 107 % of control (dose: 125.0 mg/kg/injection, schedule: Q01DX001 (ip), vehicle: other); 122 % of control (dose: 250.0 mg/kg/injection, schedule: Q01DX001 (ip), vehicle: other). In addition, the survivor count (dose: 500.0 mg/kg/injection, schedule: Q01DX001 (ip), vehicle: other) is 3 of 6.

In the case of `CC(=O)NCC1CCOP(=O)(N(CCCl)CCCl)O1` (configuration not stated), the T/C runs as follows: (dose: 15.62 mg/kg/injection, schedule: Q01DX001 (ip), vehicle: DMSO) 103 % of control; under setting [1], 101 % of control; under setting [2], 104 % of control; under setting [3], 114 % of control; under setting [4], 110 % of control; under setting [5], 135 % of control.
